# Data as given in the supplement of paper PMC8728848.
# This is one part of the list.
# What was measured:
# Test in all cases: glycan array binding signal (z-score within array); higher = stronger binding
# Settings in all cases: glycan notation: IUPAC condensed, linker removed
# [1] = target: Gal(b1-4)GlcNAc(b1-3)Gal(b1-4)GlcNAc(b1-2)Man(a1-3)[Gal(b1-4)GlcNAc(b1-3)Gal(b1-4)GlcNAc(b1-2)Man(a1-6)]Man(b1-4)GlcNAc(b1-4)[Fuc(a1-6)]GlcNAc
# How it was run: (§1)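 The Consortium for Functional Glycomics database supplied 3228 glycan arrays, of which those lacking an available protein sequence were dropped. The binding signal, a within-array Z-score, was averaged across arrays of the same protein sequence and across linkers. Negative scores can be read as non-binding.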
# [2] = target: Gal(b1-4)GlcNAc(b1-3)Gal(b1-4)GlcNAc(b1-2)[Gal(b1-4)GlcNAc(b1-3)Gal(b1-4)GlcNAc(b1-6)]Man(a1-6)[Gal(b1-4)GlcNAc(b1-3)Gal(b1-4)GlcNAc(b1-2)Man(a1-3)]Man(b1-4)GlcNAc(b1-4)GlcNAc
# How it was run: as §1
# [3] = target: Gal(b1-4)GlcNAc(b1-3)Gal(b1-4)GlcNAc(b1-2)[Gal(b1-4)GlcNAc(b1-3)Gal(b1-4)GlcNAc(b1-6)]Man(a1-6)[Gal(b1-4)GlcNAc(b1-3)Gal(b1-4)GlcNAc(b1-2)Man(a1-3)]Man(b1-4)GlcNAc(b1-4)[Fuc(a1-6)]GlcNAc
# How it was run: as §1
# [4] = target: Gal(b1-4)GlcNAc(b1-3)Gal(b1-4)GlcNAc(b1-3)Gal(b1-4)GlcNAc
# How it was run: as §1
# [5] = target: Gal(b1-4)GlcNAc(b1-3)Gal(b1-4)GlcNAc(b1-3)Gal(b1-4)GlcNAc(b1-2)Man(a1-3)[Gal(b1-4)GlcNAc(b1-3)Gal(b1-4)GlcNAc(b1-3)Gal(b1-4)GlcNAc(b1-2)Man(a1-6)]Man(b1-4)GlcNAc(b1-4)GlcNAc
# How it was run: as §1
# [6] = target: Gal(b1-4)GlcNAc(b1-3)Gal(b1-4)GlcNAc(b1-3)Gal(b1-4)GlcNAc(b1-2)Man(a1-3)[Gal(b1-4)GlcNAc(b1-3)Gal(b1-4)GlcNAc(b1-3)Gal(b1-4)GlcNAc(b1-2)Man(a1-6)]Man(b1-4)GlcNAc(b1-4)[Fuc(a1-6)]GlcNAc
# How it was run: as §1
# [7] = target: Gal(b1-4)GlcNAc(b1-3)Gal(b1-4)GlcNAc(b1-3)Gal(b1-4)GlcNAc(b1-2)[Gal(b1-4)GlcNAc(b1-3)Gal(b1-4)GlcNAc(b1-3)Gal(b1-4)GlcNAc(b1-6)]Man(a1-6)[Gal(b1-4)GlcNAc(b1-3)Gal(b1-4)GlcNAc(b1-3)Gal(b1-4)GlcNAc(b1-2)Man(a1-3)]Man(b1-4)GlcNAc(b1-4)[Fuc(a1-6)]GlcNAc
# How it was run: as §1
# [8] = target: Gal(b1-4)GlcNAc(b1-3)Gal(b1-4)GlcNAc(b1-3)Gal(b1-4)GlcNAc(b1-3)Gal(b1-4)GlcNAc(b1-2)Man(a1-3)[Gal(b1-4)GlcNAc(b1-3)Gal(b1-4)GlcNAc(b1-3)Gal(b1-4)GlcNAc(b1-3)Gal(b1-4)GlcNAc(b1-2)Man(a1-6)]Man(b1-4)GlcNAc(b1-4)GlcNAc
# How it was run: as §1
# [9] = target: Gal(b1-4)GlcNAc(b1-3)Gal(b1-4)GlcNAc(b1-3)Gal(b1-4)GlcNAc(b1-3)Gal(b1-4)GlcNAc(b1-2)Man(a1-3)[Gal(b1-4)GlcNAc(b1-3)Gal(b1-4)GlcNAc(b1-3)Gal(b1-4)GlcNAc(b1-3)Gal(b1-4)GlcNAc(b1-2)Man(a1-6)]Man(b1-4)GlcNAc(b1-4)[Fuc(a1-6)]GlcNAc
# How it was run: as §1
# [10] = target: Gal(b1-4)GlcNAc(b1-3)Gal(b1-4)GlcNAc(b1-3)Gal(b1-4)GlcNAc(b1-3)Gal(b1-4)GlcNAc(b1-2)[Gal(b1-4)GlcNAc(b1-3)Gal(b1-4)GlcNAc(b1-3)Gal(b1-4)GlcNAc(b1-3)Gal(b1-4)GlcNAc(b1-6)]Man(a1-6)[Gal(b1-4)GlcNAc(b1-3)Gal(b1-4)GlcNAc(b1-3)Gal(b1-4)GlcNAc(b1-3)Gal(b1-4)GlcNAc(b1-2)Man(a1-3)]Man(b1-4)GlcNAc(b1-4)[Fuc(a1-6)]GlcNAc
# How it was run: as §1
# [11] = target: Gal(b1-4)GlcNAc(b1-3)Gal(b1-4)GlcNAc(b1-3)Gal(b1-4)GlcNAc(b1-3)Gal(b1-4)GlcNAc(b1-3)Gal(b1-4)GlcNAc(b1-2)Man(a1-3)[Gal(b1-4)GlcNAc(b1-3)Gal(b1-4)GlcNAc(b1-3)Gal(b1-4)GlcNAc(b1-3)Gal(b1-4)GlcNAc(b1-3)Gal(b1-4)GlcNAc(b1-2)Man(a1-6)]Man(b1-4)GlcNAc(b1-4)GlcNAc
# How it was run: as §1
# [12] = target: Gal(b1-4)GlcNAc(b1-3)Gal(b1-4)GlcNAc(b1-3)Gal(b1-4)GlcNAc(b1-3)Gal(b1-4)GlcNAc(b1-3)Gal(b1-4)GlcNAc(b1-2)Man(a1-3)[Gal(b1-4)GlcNAc(b1-3)Gal(b1-4)GlcNAc(b1-3)Gal(b1-4)GlcNAc(b1-3)Gal(b1-4)GlcNAc(b1-3)Gal(b1-4)GlcNAc(b1-2)Man(a1-6)]Man(b1-4)GlcNAc(b1-4)[Fuc(a1-6)]GlcNAc
# How it was run: as §1
# [13] = target: Gal(b1-4)GlcNAc(b1-3)Gal(b1-4)GlcNAc(b1-3)Gal(b1-4)GlcNAc(b1-3)Gal(b1-4)GlcNAc(b1-3)Gal(b1-4)GlcNAc(b1-2)[Gal(b1-4)GlcNAc(b1-3)Gal(b1-4)GlcNAc(b1-3)Gal(b1-4)GlcNAc(b1-3)Gal(b1-4)GlcNAc(b1-3)Gal(b1-4)GlcNAc(b1-6)]Man(a1-6)[Gal(b1-4)GlcNAc(b1-3)Gal(b1-4)GlcNAc(b1-3)Gal(b1-4)GlcNAc(b1-3)Gal(b1-4)GlcNAc(b1-3)Gal(b1-4)GlcNAc(b1-2)Man(a1-3)]Man(b1-4)GlcNAc(b1-4)[Fuc(a1-6)]GlcNAc
# How it was run: as §1
# [14] = target: Gal(b1-4)GlcNAc(b1-3)Gal(b1-4)GlcNAc(b1-3)Gal(b1-4)GlcNAc(b1-3)Gal(b1-4)GlcNAc(b1-3)Gal(b1-4)GlcNAc(b1-3)Gal(b1-4)GlcNAc(b1-2)Man(a1-3)[Gal(b1-4)GlcNAc(b1-3)Gal(b1-4)GlcNAc(b1-3)Gal(b1-4)GlcNAc(b1-3)Gal(b1-4)GlcNAc(b1-3)Gal(b1-4)GlcNAc(b1-3)Gal(b1-4)GlcNAc(b1-2)Man(a1-6)]Man(b1-4)GlcNAc(b1-4)GlcNAc
# How it was run: as §1
# [15] = target: Gal(b1-4)GlcNAc(b1-3)Gal(b1-4)GlcNAc(b1-3)GalNAc
# How it was run: as §1
# [16] = target: Gal(b1-4)GlcNAc(b1-3)Gal(b1-4)GlcNAc(b1-3)[Gal(b1-4)GlcNAc(b1-3)Gal(b1-4)GlcNAc(b1-6)]GalNAc
# How it was run: as §1
# [17] = target: Gal(b1-4)GlcNAc(b1-3)Gal(b1-4)GlcNAc(b1-6)[Gal(b1-3)]GalNAc
# How it was run: as §1
# [18] = target: Gal(b1-4)GlcNAc(b1-3)Gal(b1-4)[Fuc(a1-3)]GlcNAc(b1-3)Gal(b1-4)[Fuc(a1-3)]GlcNAc
# How it was run: as §1
# [19] = target: Gal(b1-4)GlcNAc(b1-3)GalNAc
# How it was run: as §1
# [20] = target: Gal(b1-4)GlcNAc(b1-3)[Fuc(a1-3)GlcNAc(b1-6)]Gal(b1-4)Glc
# How it was run: as §1
# [21] = target: Gal(b1-4)GlcNAc(b1-3)[Gal(b1-4)GlcNAc(b1-6)]Gal(b1-4)GlcNAc
# How it was run: as §1
# [22] = target: Gal(b1-4)GlcNAc(b1-3)[GlcNAc(b1-6)]Gal(b1-4)GlcNAc
# How it was run: as §1
# [23] = target: Gal(b1-4)GlcNAc(b1-6)Gal(b1-4)GlcNAc
# How it was run: as §1
# [24] = target: Gal(b1-4)GlcNAc(b1-6)GalNAc
# How it was run: as §1
# [25] = target: Gal(b1-4)GlcNAc(b1-6)[Gal(b1-3)]GalNAc
# How it was run: as §1
# [26] = target: Gal(b1-4)GlcNAc(b1-6)[Gal(b1-4)GlcNAc(b1-3)]GalNAc
# How it was run: as §1
# Gal(b1-4)GlcNAc6P = target: Gal(b1-4)GlcNAc6P
# How it was run: as §1
# Gal(b1-6)Gal = target: Gal(b1-6)Gal
# How it was run: as §1
# Gal3S(b1-3)GalNAc = target: Gal3S(b1-3)GalNAc
# How it was run: as §1
# Gal3S(b1-3)GlcNAc = target: Gal3S(b1-3)GlcNAc
# How it was run: as §1
# [27] = target: Gal3S(b1-3)[Fuc(a1-4)]GlcNAc
# How it was run: as §1
# Gal3S(b1-4)Glc = target: Gal3S(b1-4)Glc
# How it was run: as §1
# Gal3S(b1-4)Glc6S = target: Gal3S(b1-4)Glc6S
# How it was run: as §1
# Gal3S(b1-4)GlcNAc = target: Gal3S(b1-4)GlcNAc
# How it was run: as §1
# [28] = target: Gal3S(b1-4)[Fuc(a1-3)]Glc6S
# How it was run: as §1
# [29] = target: Gal3S(b1-4)[Fuc(a1-3)]GlcNAc
# How it was run: as §1
# [30] = target: Gal3S(b1-4)[Fuc(a1-3)]GlcNAc6S
# How it was run: as §1
binder,measurement,setting,value
"AT1G80310(18) (Arabidopsis thaliana), Q0WP36 (protein) METTTTPLLPGDRSRCGWLRRRLRLKNPLSSELSGAVGDLGTFIPIVLTLTLVSNLDLSTTLIFTGFYNIATGLLFDIPMPVQPMKSIAAVAVSESPHLTPSQIAAAGASTAATLLLLGATGAMSFLYNIIPLPVVRGVQLSQGLQFAFTAIKYVRFNYDTATLKPSSSPRIWLGLDGLILALAALLFIILSTGSGNDREAEDGDLAETSSNESQSRRRRLRLLSSIPSALIVFALGLVLCFIRDPSIFKDLKFGPSKFHILRISWDDWKIGFLRAAIPQIPLSVLNSVIAVCKLSNDLFDKELSATTVSISVGVMNLIGCWFGAMPVCHGAGGLAGQYRFGARSGLSVIFLGIGKLIVGLVFGNSFVRILSQFPIGILGVLLLFAGIELAMASKDMNSKEDSFIMLVCAAVSMTGSSAALGFGCGVVLYLLLKLRTLDCSSVTLFSRSSDESQVDSEAAPRDV",glycan array binding signal (z-score),[1],-0.63
same,glycan array binding signal (z-score),[2],0.12
same,glycan array binding signal (z-score),[3],-0.096
same,glycan array binding signal (z-score),[4],-0.53
same,glycan array binding signal (z-score),[5],-0.649
same,glycan array binding signal (z-score),[6],-0.004
same,glycan array binding signal (z-score),[7],-0.559
same,glycan array binding signal (z-score),[8],-0.654
same,glycan array binding signal (z-score),[9],-0.386
same,glycan array binding signal (z-score),[10],-0.802
same,glycan array binding signal (z-score),[11],-0.545
same,glycan array binding signal (z-score),[12],-0.718
same,glycan array binding signal (z-score),[13],-0.714
same,glycan array binding signal (z-score),[14],-0.849
same,glycan array binding signal (z-score),[15],-0.75
same,glycan array binding signal (z-score),[16],-0.689
same,glycan array binding signal (z-score),[17],-0.516
same,glycan array binding signal (z-score),[18],-0.8
same,glycan array binding signal (z-score),[19],-0.162
same,glycan array binding signal (z-score),[20],-0.307
same,glycan array binding signal (z-score),[21],-0.576
same,glycan array binding signal (z-score),[22],0.817
same,glycan array binding signal (z-score),[23],-0.353
same,glycan array binding signal (z-score),[24],0.79
same,glycan array binding signal (z-score),[25],-0.508
same,glycan array binding signal (z-score),[26],1.58
same,glycan array binding signal (z-score),Gal(b1-4)GlcNAc6P,-0.807
same,glycan array binding signal (z-score),Gal(b1-6)Gal,0.742
same,glycan array binding signal (z-score),Gal3S(b1-3)GalNAc,-0.821
same,glycan array binding signal (z-score),Gal3S(b1-3)GlcNAc,-0.599
same,glycan array binding signal (z-score),[27],-0.37
same,glycan array binding signal (z-score),Gal3S(b1-4)Glc,-0.538
same,glycan array binding signal (z-score),Gal3S(b1-4)Glc6S,-0.508
same,glycan array binding signal (z-score),Gal3S(b1-4)GlcNAc,-0.046
same,glycan array binding signal (z-score),[28],0.008
same,glycan array binding signal (z-score),[29],1.13
same,glycan array binding signal (z-score),[30],-0.286
